Data as given in PubChem BioAssay AID504774 (Drosophila RNAi Screening Center, 2011)

- Screen: 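Genes required for cells to withstand methyl methanesulphonate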 (primary screen)
- Cell system: Drosophila Kc167 cells
- Reagent: long dsRNA against Drosophila genes, about 0.25 µg dsRNA per well
- Duration: about 6 days: 3 days knock-down, then 3 days with or without MMS
- Challenge: methyl methanesulphonate 0.004% (w/v) for 3 days after knock-down
- Detection: 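ATP-dependent luminescence as a measure of live cells in MMS-exposed wells, quantile normalised within each plate, with replicate values also given as a mean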
- Reading the numbers: mean viability with MMS: higher = more surviving cells after MMS
The screen tested about 23,000 reagents; shown is a random part of those that have a named target and a result. 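Values are quantile-normalised luminescence on an arbitrary scale; higher means more cells surviving MMS.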 The numbers tell different reagents against one gene apart. Names joined by + are all predicted targets of the reagent. Not all columns of the deposit are shown.

Trs20 (TRAPP subunit 20)
- mean viability with MMS: 3.64e6

CG11076
- mean viability with MMS: 3.60e6

Amy-p (Amylase proximal)
- mean viability with MMS: 3.49e6

CG43996 #1
- mean viability with MMS: 3.45e6

CG43996 #2
- mean viability with MMS: 3.50e6

RpL30 (Ribosomal protein L30)
- mean viability with MMS: 3.22e6

Ucp4A (Uncoupling protein 4A)
- mean viability with MMS: 3.64e6

CG12020
- mean viability with MMS: 3.43e6

side-III (sidestep III) #1
- mean viability with MMS: 3.50e6

side-III (sidestep III) #2
- mean viability with MMS: 3.03e6

side-III (sidestep III) #3
- mean viability with MMS: 3.68e6

Trc8 (TRC8 ring finger protein)
- mean viability with MMS: 3.67e6

MED21 (Mediator complex subunit 21)
- mean viability with MMS: 3.61e6

CG34033
- mean viability with MMS: 3.45e6

SMC5 (Structural maintenance of chromosomes 5)
- mean viability with MMS: 3.48e6

SmydA-5 (SET and MYND domain containing, arthropod-specific, member 5)
- mean viability with MMS: 3.43e6

vis + achi
- mean viability with MMS: 3.62e6

CG18577
- mean viability with MMS: 3.45e6

Prip
- mean viability with MMS: 3.87e6

Gyc88E (Guanylyl cyclase at 88E)
- mean viability with MMS: 3.42e6

SsRbeta (Signal sequence receptor beta)
- mean viability with MMS: 3.49e6

atilla
- mean viability with MMS: 3.71e6

CG1513 #1
- mean viability with MMS: 3.50e6

CG1513 #2
- mean viability with MMS: 1.63e6

CG1513 #3
- mean viability with MMS: 3.57e6

CG5877
- mean viability with MMS: 3.49e6

Sp7 (Serine protease 7)
- mean viability with MMS: 3.66e6

CG42634 + CG42635
- mean viability with MMS: 3.51e6

BaraC (Baramicin C)
- mean viability with MMS: 3.42e6

bsd (back seat driver)
- mean viability with MMS: 3.57e6

knrl (knirps-like) #1
- mean viability with MMS: 3.68e6

knrl (knirps-like) #2
- mean viability with MMS: 1.90e6

Sr-CIII (Scavenger receptor class C, type III)
- mean viability with MMS: 3.42e6

COX5BL (Cytochrome c oxidase subunit 5B-like)
- mean viability with MMS: 3.71e6

Tace
- mean viability with MMS: 3.69e6

Pp1-Y1 (Protein phosphatase 1, Y-linked 1)
- mean viability with MMS: 2.18e6

CG6420
- mean viability with MMS: 4.38e6

CG7945
- mean viability with MMS: 3.50e6

Aptx (aprataxin)
- mean viability with MMS: 3.66e6

CG31709
- mean viability with MMS: 3.72e6

CG9784
- mean viability with MMS: 3.53e6

ppk26 (pickpocket 26)
- mean viability with MMS: 3.59e6

Phlpp (PH domain leucine-rich repeat protein phosphatase) #1
- mean viability with MMS: 3.66e6

Phlpp (PH domain leucine-rich repeat protein phosphatase) #2
- mean viability with MMS: 3.43e6

CG32988
- mean viability with MMS: 3.37e6

Sorted by “mean viability with MMS” (high to low): some entries from above
COX5BL (Cytochrome c oxidase subunit 5B-like)
- mean viability with MMS: 3.71e6

Tace
- mean viability with MMS: 3.69e6

Pp1-Y1 (Protein phosphatase 1, Y-linked 1)
- mean viability with MMS: 2.18e6
